Test results taken from article PMC4565980.

Sequences of proteins named here, by UniProt entry; tags and fusion partners are left off. A change or cut given only in a name is not applied to a line headed by its entry. A line that says so, or that is headed by a name, gives the form on record, which may keep a tag or linker.
myc-BirA*-progerin (expressed in TERT+ human fibroblasts) (P02545, form named): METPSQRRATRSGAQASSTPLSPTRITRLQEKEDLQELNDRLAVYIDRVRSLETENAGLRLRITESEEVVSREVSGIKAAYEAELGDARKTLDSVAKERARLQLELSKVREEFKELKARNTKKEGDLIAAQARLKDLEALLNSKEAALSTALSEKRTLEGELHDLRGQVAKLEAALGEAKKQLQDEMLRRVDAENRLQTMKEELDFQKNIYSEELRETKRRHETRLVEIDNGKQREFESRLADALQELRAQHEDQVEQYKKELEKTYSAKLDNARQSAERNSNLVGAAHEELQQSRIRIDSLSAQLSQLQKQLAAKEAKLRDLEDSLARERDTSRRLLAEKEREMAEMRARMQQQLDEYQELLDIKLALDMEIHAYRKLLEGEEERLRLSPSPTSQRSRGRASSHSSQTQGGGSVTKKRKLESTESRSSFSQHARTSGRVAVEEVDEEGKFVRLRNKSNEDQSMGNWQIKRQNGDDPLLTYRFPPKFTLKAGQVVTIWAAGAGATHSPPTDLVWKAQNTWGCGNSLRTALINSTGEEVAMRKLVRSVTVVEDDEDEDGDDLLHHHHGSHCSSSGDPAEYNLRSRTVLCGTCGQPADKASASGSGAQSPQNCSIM
UniProt P12270: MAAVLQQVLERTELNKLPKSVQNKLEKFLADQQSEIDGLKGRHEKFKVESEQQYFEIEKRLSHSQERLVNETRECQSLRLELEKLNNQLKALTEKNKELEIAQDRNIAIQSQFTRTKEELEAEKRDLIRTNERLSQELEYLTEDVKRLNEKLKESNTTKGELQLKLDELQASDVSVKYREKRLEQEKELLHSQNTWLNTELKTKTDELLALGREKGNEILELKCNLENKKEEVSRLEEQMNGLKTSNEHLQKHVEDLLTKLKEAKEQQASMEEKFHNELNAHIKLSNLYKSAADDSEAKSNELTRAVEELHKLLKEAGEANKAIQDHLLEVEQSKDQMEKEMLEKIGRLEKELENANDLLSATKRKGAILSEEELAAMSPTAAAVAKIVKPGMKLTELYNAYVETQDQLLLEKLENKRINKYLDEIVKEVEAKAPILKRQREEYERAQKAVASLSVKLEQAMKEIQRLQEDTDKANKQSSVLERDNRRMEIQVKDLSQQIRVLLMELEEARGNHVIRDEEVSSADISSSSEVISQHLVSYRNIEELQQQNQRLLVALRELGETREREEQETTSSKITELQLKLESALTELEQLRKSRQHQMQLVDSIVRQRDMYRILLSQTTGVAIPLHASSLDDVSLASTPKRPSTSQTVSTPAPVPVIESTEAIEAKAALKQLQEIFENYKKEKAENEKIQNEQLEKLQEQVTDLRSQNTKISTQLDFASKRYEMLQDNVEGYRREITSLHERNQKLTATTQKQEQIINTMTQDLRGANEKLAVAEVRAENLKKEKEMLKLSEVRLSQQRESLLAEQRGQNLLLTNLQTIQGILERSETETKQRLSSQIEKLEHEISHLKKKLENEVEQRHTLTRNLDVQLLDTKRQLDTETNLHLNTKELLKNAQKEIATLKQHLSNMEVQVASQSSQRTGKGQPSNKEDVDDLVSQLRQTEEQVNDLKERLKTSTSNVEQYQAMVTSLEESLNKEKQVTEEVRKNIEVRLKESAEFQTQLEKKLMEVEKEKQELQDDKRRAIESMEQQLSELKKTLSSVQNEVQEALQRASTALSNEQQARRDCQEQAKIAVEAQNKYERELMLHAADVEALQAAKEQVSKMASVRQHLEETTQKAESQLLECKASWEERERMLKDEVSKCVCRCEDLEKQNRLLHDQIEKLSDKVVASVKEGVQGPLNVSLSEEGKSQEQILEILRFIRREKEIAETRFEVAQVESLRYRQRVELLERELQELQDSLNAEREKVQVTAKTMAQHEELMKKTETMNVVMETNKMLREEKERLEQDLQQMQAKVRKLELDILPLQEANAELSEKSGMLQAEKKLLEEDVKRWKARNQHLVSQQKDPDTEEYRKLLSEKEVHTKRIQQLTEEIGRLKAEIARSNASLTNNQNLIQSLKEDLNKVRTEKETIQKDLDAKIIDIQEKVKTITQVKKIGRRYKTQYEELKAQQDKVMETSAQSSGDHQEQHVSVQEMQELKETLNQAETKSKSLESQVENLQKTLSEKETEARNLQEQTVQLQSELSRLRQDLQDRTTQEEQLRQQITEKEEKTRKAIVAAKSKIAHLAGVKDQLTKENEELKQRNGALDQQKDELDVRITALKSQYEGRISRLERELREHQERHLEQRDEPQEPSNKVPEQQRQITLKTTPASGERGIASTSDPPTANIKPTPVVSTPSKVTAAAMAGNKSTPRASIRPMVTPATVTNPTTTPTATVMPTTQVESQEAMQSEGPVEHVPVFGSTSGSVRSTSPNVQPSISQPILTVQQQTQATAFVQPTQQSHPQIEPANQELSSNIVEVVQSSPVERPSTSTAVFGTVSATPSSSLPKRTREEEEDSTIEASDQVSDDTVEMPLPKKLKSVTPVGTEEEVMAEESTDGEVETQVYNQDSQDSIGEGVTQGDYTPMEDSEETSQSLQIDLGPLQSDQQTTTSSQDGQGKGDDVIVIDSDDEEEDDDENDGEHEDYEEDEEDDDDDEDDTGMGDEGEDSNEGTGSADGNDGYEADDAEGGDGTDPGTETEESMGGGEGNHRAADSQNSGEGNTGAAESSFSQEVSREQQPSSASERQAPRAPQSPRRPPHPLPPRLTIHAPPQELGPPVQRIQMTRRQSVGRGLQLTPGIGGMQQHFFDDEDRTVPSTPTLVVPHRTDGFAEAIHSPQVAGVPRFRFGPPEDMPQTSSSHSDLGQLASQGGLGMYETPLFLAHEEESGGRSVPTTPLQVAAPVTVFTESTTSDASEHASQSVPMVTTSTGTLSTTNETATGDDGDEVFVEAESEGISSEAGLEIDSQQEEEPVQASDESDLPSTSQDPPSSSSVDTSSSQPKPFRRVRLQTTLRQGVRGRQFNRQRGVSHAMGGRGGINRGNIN

Experiments:
[1] = target: myc-BirA*-lamin A (expressed in TERT+ human fibroblasts) (human) (UniProt P02545); assay: proximity labelling; BioID: myc-BirA* fusions doxycycline-induced in TERT+ human fibroblasts, 50 µM biotin for 24 hr, lysis under denaturing conditions, biotinylated proteins purified on streptavidin-coupled magnetic beads, SDS-PAGE, mass spectrometry (emPAI) and western blot
[2] = target: myc-BirA*-progerin (expressed in TERT+ human fibroblasts) (human) (UniProt P02545); assay: as above
[3] = target: myc-BirA*-lamin A (expressed in TERT+ human fibroblasts) (human) (UniProt P02545); assay: as above; remark: listed apart in the source
[4] = target: myc-BirA*-progerin (expressed in TERT+ human fibroblasts) (human) (UniProt P02545); assay: as above; remark: listed apart in the source
[5] = target: myc-BirA*-progerin (expressed in mouse ESC) (human) (UniProt P02545); assay: proximity labelling; BioID: myc-BirA* fusions doxycycline-induced in pluripotent mouse ESC, mass spectrometry of pull-down fractions (emPAI)
[6] = target: myc-BirA*-lamin A (expressed in mouse ESC) (human) (UniProt P02545); assay: as above

binding [3] | binding [4] | Molecule | other results
 |  | nuclear pore complex protein TPR (endogenous, human fibroblasts) (from UniProt P12270 1-2363) | binding [1]: binds; binding [2]: binds
binds | binds | LAP2α (endogenous, human fibroblasts) (protein, UniProt P42166 1-694) MPEFLEDPSVLTKDKLKSELVANNVTLPAGEQRKDVYVQLYLQHLTARNRPPLPAGTNSKGPPDFSSDEEREPTPVLGSGAAAAGRSRAAVGRKATKKTDKPRQEDKDDLDVTELTNEDLLDQLVKYGVNPGPIVGTTRKLYEKKLLKLREQGTESRSSTPLPTISSSAENTRQNGSNDSDRYSDNEEGKKKEHKKVKSTRDIVPFSELGTTPSGGGFFQGISFPEISTRPPLGSTELQAAKKVHTSKGDLPREPLVATNLPGRGQLQKLASERNLFISCKSSHDRCLEKSSSSSSQPEHSAMLVSTAASPSLIKETTTGYYKDIVENICGREKSGIQPLCPERSHISDQSPLSSKRKALEESESSQLISPPLAQAIRDYVNSLLVQGGVGSLPGTSNSMPPLDVENIQKRIDQSKFQETEFLSPPRKVPRLSEKSVEERDSGSFVAFQNIPGSELMSSFAKTVVSHSLTTLGLEVAKQSQHDKIDASELSFPFHESILKVIEEEWQQVDRQLPSLACKYPVSSREATQILSVPKVDDEILGFISEATPLGGIQAASTESCNQQLDLALCRAYEAAASALQIATHTAFVAKAMQADISQAAQILSSDPSRTHQALGILSKTYDAASYICEAAFDEVKMAAHTMGNATVGRRYLWLKDCKINLASKNKLASTPFKGGTLFGGEVCKVIKKRGNKH | 
 |  | lamin B2 (endogenous, mouse ESC) (protein, UniProt P21619 1-596) MASLPPHAGPATPLSPTRLSRLQEKEELRELNDRLAHYIDRVRALELENDRLLLRISEKEEVTTREVSGIKTLYESELADARRVLDETARERARLQIEIGKVQAELEEARKSAKKREGELTVAQGRVKDLESLFHRSEAELATALSDKQGLETEVAELRAQLAKAEDGHAVAKKQLEKETLMRVDLENRCQSLQEELAFSKSVFEEEVRETRRRHERRLVEVDSSRQQEYDFKMAQALEDLRSQHDEQVRLYRVELEQTYQAKLDNAKLLSDQNDKAAHAAREELKEARMRVESLSYQLLGLQKQASAAENHIHELEEALAGERDKFRKMLDAKEQEMTEVRDAMQQQLAEYQELLDIKLALDMEISAYRKLLEGEEERLKLSPSPSSRITISRATSSSSSSSGVGMSVGQGRGKRRRLETEDTSGSPSRASRVSSGSRLAQQTVATGVVNIDEVDPEGRFVRLKNSSDKDQSLGNWRIKRQVLEGEDIAYKFTPKYVLRAGQTVTVWAAGAGATHSPPSTLVWKSQTNWGPGESFRTALVSADGEEVAVKAAKHSSVQGRENGEEEEEEEAEFGEEDLFHQQGDPRTTSRGCRLM | binding [5]: binds; binding [6]: binds
binds |  | LAP2β (endogenous, human fibroblasts) (protein, UniProt P42167 1-454) MPEFLEDPSVLTKDKLKSELVANNVTLPAGEQRKDVYVQLYLQHLTARNRPPLPAGTNSKGPPDFSSDEEREPTPVLGSGAAAAGRSRAAVGRKATKKTDKPRQEDKDDLDVTELTNEDLLDQLVKYGVNPGPIVGTTRKLYEKKLLKLREQGTESRSSTPLPTISSSAENTRQNGSNDSDRYSDNEEDSKIELKLEKREPLKGRAKTPVTLKQRRVEHNQSYSQAGITETEWTSGSSKGGPLQALTRESTRGSRRTPRKRVETSEHFRIDGPVISESTPIAETIMASSNESLVVNRVTGNFKHASPILPITEFSDIPRRAPKKPLTRAEVGEKTEERRVERDILKEMFPYEASTPTGISASCRRPIKGAAGRPLELSDFRMEESFSSKYVPKYVPLADVKSEKTKKGRSIPVWIKILLFVVVAVFLFLVYQAMETNQVNPFSNFLHVDPRKSN | 
binds | binds | lamin B2 (endogenous, human fibroblasts) (protein, UniProt Q03252 1-620) MSPPSPGRRREQRRPRAAATMATPLPGRAGGPATPLSPTRLSRLQEKEELRELNDRLAHYIDRVRALELENDRLLLKISEKEEVTTREVSGIKALYESELADARRVLDETARERARLQIEIGKLRAELDEVNKSAKKREGELTVAQGRVKDLESLFHRSEVELAAALSDKRGLESDVAELRAQLAKAEDGHAVAKKQLEKETLMRVDLENRCQSLQEELDFRKSVFEEEVRETRRRHERRLVEVDSSRQQEYDFKMAQALEELRSQHDEQVRLYKLELEQTYQAKLDSAKLSSDQNDKAASAAREELKEARMRLESLSYQLSGLQKQASAAEDRIRELEEAMAGERDKFRKMLDAKEQEMTEMRDVMQQQLAEYQELLDVKLALDMEINAYRKLLEGEEERLKLSPSPSSRVTVSRATSSSSGSLSATGRLGRSKRKRLEVEEPLGSGPSVLGTGTGGSGGFHLAQQASASGSVSIEEIDLEGKFVQLKNNSDKDQSLGNWRIKRQVLEGEEIAYKFTPKYILRAGQMVTVWAAGAGVAHSPPSTLVWKGQSSWGTGESFRTVLVNADGEEVAMRTVKKSSVMRENENGEEEEEEAEFGEEDLFHQQGDPRTTSRGCYVM | 

Like-named read-outs stand apart in the source and are kept apart here. Results are given in words; binding and its absence hold for the method and conditions named. Binding seen in cells or lysates may run through a third protein. These calls come from enrichment with a bait or labelling near it, and not all partners need be listed.
